Results are given in words; binding and its absence hold for the method and conditions named. Binding seen in cells or lysates may run through a third protein. Binding calls can cover weak binding; strength is not graded here.
Target: P21-activated kinase 1 (pig (endogenous in porcine oocytes))
Experiment: co-IP; lysate of 700 porcine oocytes per group (500 µL lysis buffer) incubated with 3 µL anti-PAK1 antibody at 4 °C overnight, protein A and G beads, immunoblotting; IP/Co-IP kit (Absin); oocytes during the MI-MII transition

binding: binds
B1: Aurora A (protein, UniProt A5GFW1 1-402)
chain: MDKCKENCISGLKTTVPPGDGPKRVPVTQHFPAQHLPSANSGQAQRVLCPSNSSQRLPSHTQKLVSSHKPVQNLKQKQSQATSGPRPVSRPLSNTQQSEQPQPAAPGNNPEKEAASKQKNEESKKRQWALEDFEIGRPLGKGKFGNVYLAREKQSKFILALKVLFKTQLEKAGVEHQLRREVEIQSHLRHPNILRLYGYFHDATRVYLILEYAPLGAVYRELQKLSKFDEQRTATYITELANALSYCHSKRVIHRDIKPENLLLGSAGELKIADFGWSVHAPSSRRTTLCGTLDYLPPEMIEGRMHDEKVDLWSLGVLCYEFLVGKPPFEANTYQETYKRISRVEFTFPDFVPEGARDLISRLLKHNPSHRPTLKEVLEHPWITANSKPASSHKKESTSKQP
